From PubChem BioAssay AID540303 (National Center for Advancing Translational Sciences (NCATS), 2011)
In all, about 330,000 compounds went through this assay and about 1,000 (0.3%) were called active. Inconclusive means that the source gave no clear call. Such entries were picked first, then a sample of the others. Calls follow the shape of the dose curve; as a rule, active = well fitted inhibition curve with a large enough effect; inconclusive = small, poorly fitted or top-dose-only effect; inactive = no such curve, though single readings can be large or run the other way; tested in mouse RAW 264.7 cells. Where the call is inconclusive, the potency comes from a doubtful curve fit.

Test: qHTS for Inhibitors of Cell Surface uPA Generation; also: nearly all actives have a fitted effect of over 55% in size
Conditions: cell surface uPA generation assay; series mostly up to 38.3 µM
How it was run: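 Intracellular ATP by ATPlite luminescence serves as read-out: inhibited cell-surface uPA generation prevents LF translocation, preserving ATP. Murine RAW 264.7 macrophages were treated 24 h at 37 C with five-fold serial dilutions, up to 38.3 uM final.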
Potency is read from the fitted curve at half-maximal effect.

SMILES	Potency
COc1ccccc1C(=O)NCC(c1cccnc1)N(C)C (centres undefined)	inactive
COC(=O)C1=C(C)N(Cc2ccccc2)C(=NCCc2ccccn2)N[C@H]1c1cccc(F)c1	inactive
COCC1CCCCN1C(=O)c1cc(COc2ccc3ncccc3c2)on1 (centres undefined)	inconclusive: 0.708 µM [inhibitor, partial curve, poor fit]
Cc1nn(CC(=O)N2c3ccccc3NC(=O)C2(C)C)c(C)c1[N+](=O)[O-]	inconclusive: 31.6 µM [inhibitor, single point]
Cc1ccc(-n2nc3c(N4CCC(C(=O)NCCc5ccco5)CC4)nnc(C)c3c2C)cc1	inconclusive: 5.01 µM [inhibitor, partial curve, poor fit]
COc1cccc(-c2cc(=O)c3cc(NC(=O)c4ccc(N(C)C)cc4)ccc3[nH]2)c1	inconclusive: 0.0089 µM [inhibitor, full curve, poor fit]
Nc1ccc(C(=O)Nc2nc3ccccc3s2)cc1	inconclusive: 11.2 µM [inhibitor, partial curve, poor fit]
CCCCCC1C(=O)N2C=C(c3ccccc3)c3ccccc3N2C1=O (centres undefined)	inactive
COc1ccccc1N1CCN(C(c2cccs2)C(C)NS(=O)(=O)c2ccccc2)CC1 (centres undefined)	inconclusive: 12.6 µM [inhibitor, single point]
CC(=O)Nc1cccc(C(=O)/C=C/c2ccc(F)cc2)c1	inactive
CCn1nc(C)c(CNC(=O)c2cc(COc3ccc(F)cc3Cl)on2)c1C	inconclusive: 28.2 µM [inhibitor, single point]
Cc1cc2c(cc1C)-c1c(ssc1=Nc1ccc(S(N)(=O)=O)cc1)C(C)(C)N2	inconclusive: 28.2 µM [inhibitor, single point]
Nc1cn(C2OC(CO)C(O)C2O)c(=O)[nH]c1=O (centres undefined)	inconclusive: 10 µM [inhibitor, single point]
O=C(CSc1nc2ccccc2[nH]1)N1CCN(c2ccc(F)cc2)CC1	inactive
C#CCN1[C@@H]2CCN(C2)c2cc(Br)ccc2S1(=O)=O	inconclusive: 10 µM [inhibitor, partial curve, poor fit]
COc1ccc(CCNC(=O)c2cc(C3CC3)nc3c2cnn3C(C)C)cc1OC	inactive
O=C(NC(=S)Nc1ccc(Br)cn1)c1cccs1	inconclusive: 25.1 µM [inhibitor, single point]
COc1ccc(S(=O)(=O)N(CC(=O)N2CCN(c3ccccc3OC)CC2)c2ccccc2)cc1	inactive
Cc1cccc(C)c1NC(=O)C(c1ccccc1)N1CC(=O)Nc2ccccc21 (centres undefined)	inconclusive: 3.55 µM [inhibitor, partial curve]

Retrieved by structure from above (two):
SMILES	Potency
COc1ccccc1N1CCN(C(c2cccs2)C(C)NS(=O)(=O)c2ccccc2)CC1 (centres undefined)	inconclusive: 12.6 µM [inhibitor, single point]
O=C(NC(=S)Nc1ccc(Br)cn1)c1cccs1	inconclusive: 25.1 µM [inhibitor, single point]
